Patent publication US20240156800A1, “EP300 DEGRADER AND USES THEREOF IN NEUROBLASTOMA” (DANA-FARBER CANCER INSTITUTE, INC., priority 2021, published 2024)
For at least one compound, name, drawing or mass did not settle the structure.

The chains behind the UniProt entries cited, without tags or fusion partners. Where a name states a change or a piece, a line headed by the entry shows the natural chain unless it says otherwise. Residues count along the entry.
UniProt Q09472, 2-2414 limits assumed: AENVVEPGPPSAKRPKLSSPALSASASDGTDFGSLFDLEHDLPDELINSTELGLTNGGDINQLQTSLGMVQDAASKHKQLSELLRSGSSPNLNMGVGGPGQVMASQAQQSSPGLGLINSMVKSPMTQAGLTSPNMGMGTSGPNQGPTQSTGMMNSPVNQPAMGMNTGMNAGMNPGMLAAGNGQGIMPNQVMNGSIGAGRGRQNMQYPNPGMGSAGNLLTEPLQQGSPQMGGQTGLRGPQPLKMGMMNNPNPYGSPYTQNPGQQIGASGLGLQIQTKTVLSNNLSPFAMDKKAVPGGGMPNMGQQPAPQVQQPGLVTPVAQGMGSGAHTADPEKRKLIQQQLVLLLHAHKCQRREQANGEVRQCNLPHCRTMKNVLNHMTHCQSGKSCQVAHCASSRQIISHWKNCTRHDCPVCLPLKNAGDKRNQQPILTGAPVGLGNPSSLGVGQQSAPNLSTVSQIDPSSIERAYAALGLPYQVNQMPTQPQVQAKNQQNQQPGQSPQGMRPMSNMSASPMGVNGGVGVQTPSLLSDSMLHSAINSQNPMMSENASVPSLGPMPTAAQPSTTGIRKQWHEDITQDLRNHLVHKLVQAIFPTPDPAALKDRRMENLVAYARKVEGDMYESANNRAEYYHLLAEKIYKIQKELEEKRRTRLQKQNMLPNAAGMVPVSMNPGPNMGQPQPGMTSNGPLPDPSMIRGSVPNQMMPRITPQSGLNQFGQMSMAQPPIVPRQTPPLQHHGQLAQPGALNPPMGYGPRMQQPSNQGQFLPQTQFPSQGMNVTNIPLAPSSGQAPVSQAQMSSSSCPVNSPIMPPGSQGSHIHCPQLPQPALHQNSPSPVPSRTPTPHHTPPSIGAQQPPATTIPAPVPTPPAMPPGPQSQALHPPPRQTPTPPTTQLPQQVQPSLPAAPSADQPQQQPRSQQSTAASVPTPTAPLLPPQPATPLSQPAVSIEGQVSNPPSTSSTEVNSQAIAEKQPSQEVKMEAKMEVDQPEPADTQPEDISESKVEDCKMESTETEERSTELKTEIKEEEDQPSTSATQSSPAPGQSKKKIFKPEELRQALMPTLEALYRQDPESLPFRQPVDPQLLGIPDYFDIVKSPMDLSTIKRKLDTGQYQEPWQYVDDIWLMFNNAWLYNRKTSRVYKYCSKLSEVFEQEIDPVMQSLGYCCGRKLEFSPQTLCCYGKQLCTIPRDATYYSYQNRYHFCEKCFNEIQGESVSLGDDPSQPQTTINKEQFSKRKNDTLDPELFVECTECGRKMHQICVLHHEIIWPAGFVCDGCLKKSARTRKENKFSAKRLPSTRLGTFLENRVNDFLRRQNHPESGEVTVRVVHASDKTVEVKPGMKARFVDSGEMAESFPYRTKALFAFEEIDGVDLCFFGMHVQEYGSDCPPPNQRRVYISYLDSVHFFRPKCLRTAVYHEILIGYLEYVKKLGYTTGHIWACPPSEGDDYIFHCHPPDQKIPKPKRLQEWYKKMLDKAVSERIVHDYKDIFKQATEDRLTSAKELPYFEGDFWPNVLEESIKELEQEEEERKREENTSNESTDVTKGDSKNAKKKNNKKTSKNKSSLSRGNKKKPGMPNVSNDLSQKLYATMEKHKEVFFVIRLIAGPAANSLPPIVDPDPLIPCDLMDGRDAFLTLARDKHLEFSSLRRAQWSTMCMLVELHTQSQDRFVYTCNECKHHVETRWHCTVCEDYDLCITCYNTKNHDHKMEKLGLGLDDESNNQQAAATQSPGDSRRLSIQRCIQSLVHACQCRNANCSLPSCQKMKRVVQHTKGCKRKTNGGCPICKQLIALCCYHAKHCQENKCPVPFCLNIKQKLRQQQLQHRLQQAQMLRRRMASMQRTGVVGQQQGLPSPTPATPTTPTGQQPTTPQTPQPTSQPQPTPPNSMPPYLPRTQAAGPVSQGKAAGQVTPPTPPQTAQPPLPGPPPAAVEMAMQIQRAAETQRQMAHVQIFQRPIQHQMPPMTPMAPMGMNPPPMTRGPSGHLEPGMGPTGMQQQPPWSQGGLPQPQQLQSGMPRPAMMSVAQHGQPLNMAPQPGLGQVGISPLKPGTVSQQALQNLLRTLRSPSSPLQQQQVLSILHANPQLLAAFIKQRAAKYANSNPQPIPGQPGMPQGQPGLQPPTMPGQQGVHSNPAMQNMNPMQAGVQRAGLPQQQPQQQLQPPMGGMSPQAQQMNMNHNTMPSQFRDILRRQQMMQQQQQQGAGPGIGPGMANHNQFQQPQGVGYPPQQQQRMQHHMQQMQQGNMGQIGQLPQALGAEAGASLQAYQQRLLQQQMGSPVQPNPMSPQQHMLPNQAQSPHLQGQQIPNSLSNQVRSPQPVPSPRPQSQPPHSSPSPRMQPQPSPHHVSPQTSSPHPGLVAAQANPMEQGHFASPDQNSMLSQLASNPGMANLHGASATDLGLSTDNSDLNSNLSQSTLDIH
UniProt Q96SW2: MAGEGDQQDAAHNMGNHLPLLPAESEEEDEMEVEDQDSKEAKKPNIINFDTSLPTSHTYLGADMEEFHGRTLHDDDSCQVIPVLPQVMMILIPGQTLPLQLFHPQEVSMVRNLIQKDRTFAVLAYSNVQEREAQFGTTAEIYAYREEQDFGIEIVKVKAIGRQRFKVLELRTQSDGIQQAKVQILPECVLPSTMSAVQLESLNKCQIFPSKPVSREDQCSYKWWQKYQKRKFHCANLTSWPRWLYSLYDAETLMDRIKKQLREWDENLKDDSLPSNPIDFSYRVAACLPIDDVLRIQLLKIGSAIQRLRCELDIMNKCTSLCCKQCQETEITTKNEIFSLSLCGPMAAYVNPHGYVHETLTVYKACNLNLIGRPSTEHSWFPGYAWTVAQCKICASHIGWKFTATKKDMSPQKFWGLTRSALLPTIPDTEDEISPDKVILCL

Target: T1, EP300, CRBN and CBP in Kelly cell lysates (Homo sapiens, UniProt Q09472+Q96SW2)
T1 construct: added to 500 μg of whole Kelly cell lysate; endogenous in cells; host or cells: Kelly neuroblastoma cells (whole cell lysate)
Test: Biotin-JQAD1 pulldown from Kelly cell lysates (streptavidin purification, western blotting)
Format: binding
Method: Biotin-JQAD1, synthesized below, was added to 500 μg of whole Kelly cell lysate prepared in immunoprecipitation (IP) lysis buffer (Pierce™ Biotechnology), and incubated for 16 h at 4° C. with end-over-end mixing. One hundred μL of high-capacity streptavidin agarose resin (Pierce™ Biotechnology) was packed into a 1.5 mL Eppendorf tube®, washed three times with cold PBS, prior to addition of cell lysate. Lysate was incubated at room temperature for 10 minutes prior to centrifugation and washing, followed by elution in NuPAGE™ LDS sample buffer with reducing agent (Thermo-Fisher Scientific). Samples were processed by sodium dodecyl sulphate-polyacrylamide gel electrophoresis (SDS-PAGE) as above and blotted using anti-EP300, anti-CRBN, or anti-CBP antibodies.

C[C@H](N(Cc1ccc(F)cc1)C(=O)CN1C(=O)O[C@@]2(CCc3cc(NC(=O)[C@H](CCCCNC(=O)CCCCCNc4ccc5c(c4)C(=O)N(C4CCC(=O)NC4=O)C5=O)NC(=O)CCCC[C@@H]4SC[C@@H]5NC(=O)N[C@@H]54)ccc32)C1=O)C(F)(F)F (stereo partly drawn) [Biotin-JQAD1, 6-(6-((2-(2,6-dioxopiperidin-3-yl)-1,3-dioxoisoindolin-5-yl)amino)hexanamido)-N-(®-3′-(2-((4-fluorobenzyl)((S)-1,1,1-trifluoropropan-2-yl)amino)-2-oxoethyl)-2′,4′-dioxo-2,3-dihydrospiro[indene-1,5′-oxazolidin]-5-yl)-2-(5-((3aS,4S,6aR)-2-oxohexahydro-1H-thieno[3,4-d]44midazole-4-yl)pentanamido)hexanamide]
proteins in streptavidin-purified lysates: presence of EP300 and CRBN, but surprisingly not CBP proteins
